# Reference: the supplement of paper PMC7024190
# Where a name gives a salt, the structure may show the parent alone. The list shows a part of the results. Repeats in this data set agree poorly, so a single value says little.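 The cells were human embryonic kidney cells carrying a Renilla luciferase gene, driven by the HSV-TK promoter, on a plasmid put in briefly by transfection. This is the first-round screen of about ten thousand compounds, looking for ones that raise reporter output.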
# System: HEK 293FT
# Experiment: log relative Renilla luciferase luminescence (reporter expression vs reference, reference not stated) (log (base not stated)); higher = higher recombinant reporter expression
# Conditions: 10 µM; time after transfection 48 h
row,SMILES,log
1,CC(C)Cc1ccc([C@H](C)C(=O)O)cc1 [S-(+)-ibuprofen],0.107
2,CS(=O)(=O)c1ccc([C@@H](O)[C@@H](CO)NC(=O)C(Cl)Cl)cc1 [Thiamphenicol],0.104
3,O=c1[nH]cc(F)c(=O)[nH]1 [5-fluorouracil],0.0695
4,C[C@]12C=CC(=O)C=C1CC[C@@H]1[C@@H]2[C@@H](O)C[C@@]2(C)[C@H]1CC[C@]2(O)C(=O)CO [Prednisolone],0.0384
5,O=C1C(CC[S+]([O-])c2ccccc2)C(=O)N(c2ccccc2)N1c1ccccc1 (stereo not given) [Sulfinpyrazone],0.102
6,NS(=O)(=O)c1cc2c(cc1Cl)N=C(CSCc1ccccc1)NS2(=O)=O [Benzthiazide],-0.236
7,CC(=O)O[C@]1(C(C)=O)CC[C@H]2[C@@H]3C=C(C)C4=CC(=O)CC[C@@H]4[C@H]3CC[C@@]21C [Nomegestrol acetate],0.127
8,CO[C@@]1(NC(=O)C(C(=O)O)c2ccc(O)cc2)C(=O)N2C(C(=O)O)=C(CSc3nnnn3C)CO[C@@H]21 (stereo not given in full) [Moxalactam disodium salt],-0.0476
9,C#C[C@]1(O)CC[C@H]2[C@@H]3CCC4=CC(=O)CC[C@@H]4[C@H]3CC[C@@]21C [Norethindrone],0.0503
10,C#C[C@]1(OC(C)=O)CC[C@H]2[C@@H]3CCC4=C[C@@H](OC(C)=O)CC[C@@H]4[C@H]3CC[C@@]21C [Ethynodiol diacetate],-0.203
11,Nc1ccc(S(=O)(=O)Nc2ncccn2)cc1 [Sulfadiazine],-0.0974
12,Clc1ccccc1CN1CCc2sccc2C1 [Ticlopidine hydrochloride],0.0896
13,CCN(CC)CCOC(=O)C1(c2ccc([N+](=O)[O-])cc2)CCCC1 [Nitrocaramiphen hydrochloride],-0.185
14,CN(C)CCCN1c2ccccc2CCc2ccc(Cl)cc21 [Clomipramine hydrochloride],0.0484
15,CO[C@@]1(NC(=O)C2SC(=C(C(N)=O)C(=O)O)S2)C(=O)N2C(C(=O)O)=C(CSc3nnnn3C)CS[C@@H]21 (stereo not given in full) [Cefotetan],-0.172
16,Cc1cc(C(C)(C)CC(C)(C)C)ccc1OCCOCC[N+](C)(C)Cc1ccccc1 [Methyl benzethonium chloride],-1.45
17,Cc1cc(NC(=O)C2=C(O)c3ccccc3S(=O)(=O)N2C)no1 [Isoxicam],0.00284
18,COC(=O)C1=C(C)NC(C)=C(C(=O)OC)C1c1ccccc1[N+](=O)[O-] [Nifedipine],0.0542
19,C#C[C@]1(O)CC[C@H]2[C@@H]3CCc4cc(OC)ccc4[C@H]3CC[C@@]21C [Ethynylestradiol 3-methyl ether],-0.141
20,CC(C)NCC(O)c1ccc(NS(C)(=O)=O)cc1 (stereo not given) [Sotalol hydrochloride],-0.0605
21,CC(=O)N1CCN(c2ccc(OCC3COC(Cn4ccnc4)(c4ccc(Cl)cc4Cl)O3)cc2)CC1 (stereo not given) [Ketoconazole],-0.363
22,CCN(CC)CCCC(C)Nc1c2ccc(Cl)cc2nc2ccc(OC)cc12 (stereo not given) [Quinacrine dihydrochloride dihydrate],0.212
23,CCCCCCCCCCCCCCCC[N+](C)(C)CCN(Cc1ccc(OC)cc1)c1ncccn1 [Thonzonium bromide],-0.995
24,CNC(=C[N+](=O)[O-])NCCSCc1ccc(CN(C)C)o1 [Ranitidine hydrochloride],0.229

row,SMILES,log
1,COC(=O)[C@H]1[C@H]2C[C@@H]3c4[nH]c5cc(OC)ccc5c4CCN3C[C@H]2C[C@@H](OC(=O)c2cc(OC)c(OC)c(OC)c2)[C@@H]1OC [Reserpine],0.0032
2,CCOC(=O)Nc1ccc2c(c1)N(C(=O)CCN1CCOCC1)c1ccccc1S2 [Moricizine hydrochloride],0.0377
3,CCc1cc(C(N)=S)ccn1 [Ethionamide],0.0424
4,CCC(=O)[C@@]1(C)[C@H](C)C[C@H]2[C@@H]3CCC4=CC(=O)C=C[C@]4(C)[C@H]3[C@@H](O)C[C@@]21C [Rimexolone],-0.615
5,CN(N=O)C(=O)N[C@@H](C=O)[C@@H](O)[C@H](O)[C@H](O)CO [Streptozotocin],-0.0449
6,O=C(N/N=C/c1ccc([N+](=O)[O-])o1)c1ccc(O)cc1 [Nifuroxazide],-1.12
7,CN1CCN(C(c2ccccc2)c2ccc(Cl)cc2)CC1 (stereo not given) [Chlorcyclizine hydrochloride],0.232
8,"O=C1C=CC(=O)c2c1ccc1c2ccc2ccccc21 [Chrysene-1,4-quinone]",-0.172
9,CC(C)(O/N=C(\C(=O)N[C@@H]1C(=O)N2C(C(=O)[O-])=C(C[n+]3ccccc3)CS[C@H]12)c1csc(N)n1)C(=O)O [Ceftazidime pentahydrate],-0.103
10,Cc1ccc(/C(=C\CN2CCCC2)c2ccccn2)cc1 [Triprolidine hydrochloride],0.0581
11,Cc1c(Cl)cccc1Nc1ncccc1C(=O)O [Clonixin Lysinate],0.102
12,C[C@H]1[C@H](NC(=O)/C(=N\OC(C)(C)C(=O)O)c2csc(N)n2)C(=O)N1S(=O)(=O)O [Aztreonam],0.107
13,CNCCC=C1c2ccccc2CCc2ccccc21 [Nortriptyline hydrochloride],-0.0265
14,CCc1c2c(nc3ccc(OC(=O)N4CCC(N5CCCCC5)CC4)cc13)-c1cc3c(c(=O)n1C2)COC(=O)[C@]3(O)CC [Irinotecan Hydrochloride],0.0364
15,CCn1cc(C(=O)O)c(=O)c2cc(F)c(N3CCNC(C)C3)c(F)c21 (stereo not given) [Lomefloxacin hydrochloride],0.171
16,COc1cc(C)nc(-n2nc(C)cc2OC)n1 [Epirizole],0.117
17,CS(=O)(=O)Nc1ccc([N+](=O)[O-])cc1Oc1ccccc1 [Nimesulide],-0.167
18,CNC(=C[N+](=O)[O-])NCCSCc1csc(CN(C)C)n1 [Nizatidine],0.121
19,C[C@]12C=CC(=O)C=C1CC[C@@H]1[C@@H]2C(=O)C[C@@]2(C)[C@H]1CC[C@]2(O)C(=O)CO [Prednisone],0.0806
20,C[C@@H]1CN(c2c(F)c(N)c3c(=O)c(C(=O)O)cn(C4CC4)c3c2F)C[C@H](C)N1 [Sparfloxacin],0.0842
21,CCn1cc(C(=O)O)c(=O)c2cc(F)c(N3CCN(C)CC3)cc21 [Pefloxacine],0.148
22,CC[C@]12CCCN3CCc4c(n(c5ccccc45)C(=O)C1)[C@@H]32 [Eburnamonine (-)],-0.00193
23,CC(=O)Oc1cc(C(C)C)c(OCCN(C)C)cc1C [Moxisylyte hydrochoride],0.0713
24,CC(c1cc2ccccc2s1)N(O)C(N)=O (stereo not given) [Zileuton],-0.114

row,SMILES,log
1,COc1cc(C)c(/C=C/C(C)=C/C=C/C(C)=C/C(=O)O)c(C)c1C [Acitretin],0.0484
2,CN(C)CCC=C1c2ccccc2C=Cc2ccccc21 [Cyclobenzaprine hydrochloride],-0.0505
3,NS(=O)(=O)c1cc2c(cc1Cl)NCNS2(=O)=O [Hydrochlorothiazide],-0.138
4,C[N+]1(C)CCC(=C(c2ccccc2)c2ccccc2)CC1 [Diphemanil methylsulfate],0.105
5,CNNCc1ccc(C(=O)NC(C)C)cc1 [Procarbazine hydrochloride],0.0808
6,O=c1[nH]c(=O)n([C@H]2C[C@H](O)[C@@H](CO)O2)cc1F [Floxuridine],-0.819
7,COc1cc2nc(N3CCN(C(=O)C4CCCO4)CC3)nc(N)c2cc1OC (stereo not given) [Terazosin hydrochloride],-0.0145
8,Nc1ccc(S(=O)(=O)Nc2ccc(Cl)nn2)cc1 [Sulfachloropyridazine],0.129
9,CN(C)CCCOc1nn(Cc2ccccc2)c2ccccc12 [Benzydamine hydrochloride],0.137
10,C#C[C@]1(O)CC[C@H]2[C@@H]3[C@H](C)CC4=C(CCC(=O)C4)[C@H]3CC[C@@]21C [Tibolone],-0.876
11,CC(=O)OCC(=O)[C@@]1(O)CC[C@H]2[C@@H]3CCC4=CC(=O)C=C[C@]4(C)[C@@]3(F)[C@@H](O)C[C@@]21C [Isoflupredone acetate],0.0896
12,CO[C@@H]1[C@@H](OC(N)=O)[C@@H](O)[C@H](Oc2ccc3c(O)c(NC(=O)c4ccc(O)c(CC=C(C)C)c4)c(=O)oc3c2C)OC1(C)C [Novobiocin sodium salt],-0.144
13,CCN1CCN(C(=O)N[C@@H](C(=O)N[C@@H]2C(=O)N3[C@@H]2SC(C)(C)[C@@H]3C(=O)O)c2ccccc2)C(=O)C1=O [Piperacillin sodium salt],-0.065
14,CCCC(=O)Nc1ncnc2c1ncn2[C@@H]1O[C@@H]2COP(=O)(O)O[C@H]2[C@H]1OC(=O)CCC [Bucladesine sodium salt],-0.162
15,CN(C)CCC[C@@]1(c2ccc(F)cc2)OCc2cc(C#N)ccc21 [Escitalopram],-0.121
16,CN1CCCC(n2nc(Cc3ccc(Cl)cc3)c3ccccc3c2=O)CC1 (stereo not given) [Azelastine HCl],-0.00359
17,CN1CCCCC1CCN1c2ccccc2Sc2ccc([S+](C)[O-])cc21 (stereo not given) [Mesoridazine besylate],0.107
18,NC(=O)N/N=C/c1ccc([N+](=O)[O-])o1 [Nitrofural],-0.00375
19,CC(=O)Oc1cccc2c1C(=O)c1c(OC(C)=O)cc(C(=O)O)cc1C2=O [Diacerein],-0.597
20,C=C1C[C@H]2[C@@H]3C=C(C)C4=CC(=O)CC[C@]4(C)[C@H]3CC[C@]2(C)[C@@]1(OC(C)=O)C(C)=O [Melengestrol acetate],-1.22
21,OCCN1CCN(CCCN2c3ccccc3Sc3ccc(Cl)cc32)CC1 [Perphenazine],0.0781
22,OC[C@H]1O[C@@H](Oc2ccc(O)cc2)[C@H](O)[C@@H](O)[C@@H]1O [Arbutin],0.0444

# Structural class, the entries above with a furan ring, fused or not (3)
row,SMILES,log
24,CNC(=C[N+](=O)[O-])NCCSCc1ccc(CN(C)C)o1 [Ranitidine hydrochloride],0.229
6,O=C(N/N=C/c1ccc([N+](=O)[O-])o1)c1ccc(O)cc1 [Nifuroxazide],-1.12
18,NC(=O)N/N=C/c1ccc([N+](=O)[O-])o1 [Nitrofural],-0.00375

# Quoted at random: 3 entries already listed, in no set order.
row,SMILES,log
6,O=c1[nH]c(=O)n([C@H]2C[C@H](O)[C@@H](CO)O2)cc1F [Floxuridine],-0.819
2,CN(C)CCC=C1c2ccccc2C=Cc2ccccc21 [Cyclobenzaprine hydrochloride],-0.0505
18,NC(=O)N/N=C/c1ccc([N+](=O)[O-])o1 [Nitrofural],-0.00375
